For 1 molecule, binding results are on record in paper PMC7926923, “Identification of Active Site Residues of the Siderophore Synthesis Enzyme PvdF and Evidence for Interaction of PvdF with a Substrate-Providing Enzyme” (International Journal of Molecular Sciences, 2021).

No constants are given. Whether binding was seen depends on the method and setting. Binding seen in cells or lysates may run through a third protein. For some assays here: A result given as binding can be weak or reduced; the word gives no strength. Tags and fused reporters may be left off the sequences shown.

One assay deals with PvdFHis6 (P. aeruginosa). Description: pull-down.
For another assay, the target named is His6PvdF (P. aeruginosa). Put plainly: pull-down.

B1: PvdA (untagged) (enzyme, UniProt Q51548 1-443)
chain: MTQATATAVVHDLIGVGFGPSNIALAIALQERAQAQGALEVLFLDKQGDYRWHGNTLVSQSELQISFLKDLVSLRNPTSPYSFVNYLHKHDRLVDFINLGTFYPCRMEFNDYLRWVASHFQEQSRYGEEVLRIEPMLSAGQVEALRVISRNADGEELVRTTRALVVSPGGTPRIPQVFRALKGDGRVFHHSQYLEHMAKQPCSSGKPMKIAIIGGGQSAAEAFIDLNDSYPSVQADMILRASALKPADDSPFVNEVFAPKFTDLIYSREHAERERLLREYHNTNYSVVDTDLIERIYGVFYRQKVSGIPRHAFRCMTTVERATATAQGIELALRDAGSGELSVETYDAVILATGYERQLHRQLLEPLAEYLGDHEIGRDYRLQTDERCKVAIYAQGFSQASHGLSDTLLSVLPVRAEEISGSLYQHLKPGTAARALHEHALAS
On to B1, for which the binding entry with PvdFHis6 (P. aeruginosa) is listed as “binds”; with His6PvdF (P. aeruginosa), “no binding”.
